Values of other authors, collected in patent publication US20250188479A1, “Biosynthesis Of Rose Aromas” (AGENCY FOR SCIENCE, TECHNOLOGY AND RESEARCH, priority 2022, published 2025).
For at least one compound, name, drawing or mass did not settle the structure.

Target: Escherichia coli (strain K12) NudI, Nucleoside triphosphatase NudI, UniProt P52006
Conditions: Protein Sci. 2019; 28(8): 1494-1500

Compound: CC(C)=CCC/C(C)=C/COP(=O)(O)OP(=O)(O)O [GPP, geranyl diphosphate]
- Km: 310 ± 20 µM
